From PMC4496399
No constants are given. Whether binding was seen depends on the method and setting. Binding seen in cells or lysates may run through a third protein. Binding can be weak; no strength is given.

Protein sequences, listed by entry. Tags and fused reporters are not part of them. Lines headed by an entry give the natural chain unless they say otherwise; changes in a name come on top. Residues count along the entry.
UniProt P04629: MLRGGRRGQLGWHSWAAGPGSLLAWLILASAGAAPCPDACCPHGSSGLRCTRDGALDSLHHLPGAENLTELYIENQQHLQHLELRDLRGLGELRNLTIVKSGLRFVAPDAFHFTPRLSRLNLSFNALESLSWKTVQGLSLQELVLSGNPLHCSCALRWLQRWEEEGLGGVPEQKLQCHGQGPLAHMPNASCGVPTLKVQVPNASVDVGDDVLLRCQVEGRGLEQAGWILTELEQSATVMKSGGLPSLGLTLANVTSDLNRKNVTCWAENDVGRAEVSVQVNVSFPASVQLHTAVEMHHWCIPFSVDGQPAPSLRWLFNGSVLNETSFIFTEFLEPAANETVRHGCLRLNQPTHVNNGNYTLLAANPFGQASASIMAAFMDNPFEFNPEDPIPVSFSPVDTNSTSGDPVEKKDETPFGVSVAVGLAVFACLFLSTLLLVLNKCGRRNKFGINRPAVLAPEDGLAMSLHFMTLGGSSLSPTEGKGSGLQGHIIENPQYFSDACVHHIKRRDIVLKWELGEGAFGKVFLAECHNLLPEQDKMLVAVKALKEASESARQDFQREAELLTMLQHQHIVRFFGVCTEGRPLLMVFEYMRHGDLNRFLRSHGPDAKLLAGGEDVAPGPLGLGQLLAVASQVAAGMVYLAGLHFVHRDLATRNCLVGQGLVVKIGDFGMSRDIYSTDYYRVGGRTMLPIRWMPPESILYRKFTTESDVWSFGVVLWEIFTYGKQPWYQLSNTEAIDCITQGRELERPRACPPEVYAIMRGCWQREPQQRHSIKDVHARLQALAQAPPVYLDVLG
UniProt P16070, residues 21-742: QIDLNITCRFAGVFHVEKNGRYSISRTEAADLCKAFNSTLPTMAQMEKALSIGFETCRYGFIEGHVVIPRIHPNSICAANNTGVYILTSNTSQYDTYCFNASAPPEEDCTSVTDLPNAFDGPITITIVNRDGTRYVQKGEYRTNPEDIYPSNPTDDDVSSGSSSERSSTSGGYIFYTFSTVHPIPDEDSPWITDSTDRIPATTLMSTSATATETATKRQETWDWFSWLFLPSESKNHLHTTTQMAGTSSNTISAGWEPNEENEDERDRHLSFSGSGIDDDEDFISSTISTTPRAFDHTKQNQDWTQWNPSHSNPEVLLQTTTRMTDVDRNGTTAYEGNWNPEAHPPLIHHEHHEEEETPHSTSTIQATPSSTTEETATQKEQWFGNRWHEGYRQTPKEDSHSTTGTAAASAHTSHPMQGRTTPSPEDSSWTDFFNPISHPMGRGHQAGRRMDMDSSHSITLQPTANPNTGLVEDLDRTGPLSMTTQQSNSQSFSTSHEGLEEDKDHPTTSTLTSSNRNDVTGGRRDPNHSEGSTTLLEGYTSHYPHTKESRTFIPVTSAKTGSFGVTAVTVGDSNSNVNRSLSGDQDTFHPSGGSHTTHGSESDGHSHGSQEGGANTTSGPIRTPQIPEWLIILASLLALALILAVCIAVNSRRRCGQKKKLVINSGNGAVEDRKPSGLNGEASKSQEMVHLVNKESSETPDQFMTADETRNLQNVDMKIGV

Molecular target: HA-TrkA Kinase-dead (UniProt P04629)
Assay: proximity ligation; in situ PLA on paraformaldehyde-fixed cells without membrane permeabilization; rabbit anti-HA or rabbit anti-TrkA and mouse anti-CD44; cells untreated or treated with NGF (16 nM) for 5 or 30 min, with DMSO or K252a (10 nM) pre-incubation

Which binding does the source give for “CD44 antigen (from UniProt P16070 21-742) (receptor)” here?
The binding was “binds”.
